Reference: paper PMC11942402
Results are given in words; binding and its absence hold for the method and conditions named. In cells and extracts the contact can be indirect. Some entries that bind do so weakly or less than the wild type.

Sequences of proteins named here, by UniProt entry; tags and fusion partners are left off.
UniProt Q04207: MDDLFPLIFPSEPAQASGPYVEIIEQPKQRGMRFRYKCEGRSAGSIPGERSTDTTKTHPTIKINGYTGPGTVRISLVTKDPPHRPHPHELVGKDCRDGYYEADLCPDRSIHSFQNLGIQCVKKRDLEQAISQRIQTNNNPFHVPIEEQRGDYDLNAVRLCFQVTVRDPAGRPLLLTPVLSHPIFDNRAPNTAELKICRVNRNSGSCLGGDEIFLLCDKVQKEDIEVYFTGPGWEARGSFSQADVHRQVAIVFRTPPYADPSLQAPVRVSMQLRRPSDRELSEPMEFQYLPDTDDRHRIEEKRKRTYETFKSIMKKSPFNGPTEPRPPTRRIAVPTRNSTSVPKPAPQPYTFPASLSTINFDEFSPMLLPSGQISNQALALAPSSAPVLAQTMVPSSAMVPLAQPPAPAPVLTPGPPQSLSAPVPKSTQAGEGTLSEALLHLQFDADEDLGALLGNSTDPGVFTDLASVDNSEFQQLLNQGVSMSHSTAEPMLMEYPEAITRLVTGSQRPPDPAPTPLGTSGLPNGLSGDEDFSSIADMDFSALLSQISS
UniProt P01101: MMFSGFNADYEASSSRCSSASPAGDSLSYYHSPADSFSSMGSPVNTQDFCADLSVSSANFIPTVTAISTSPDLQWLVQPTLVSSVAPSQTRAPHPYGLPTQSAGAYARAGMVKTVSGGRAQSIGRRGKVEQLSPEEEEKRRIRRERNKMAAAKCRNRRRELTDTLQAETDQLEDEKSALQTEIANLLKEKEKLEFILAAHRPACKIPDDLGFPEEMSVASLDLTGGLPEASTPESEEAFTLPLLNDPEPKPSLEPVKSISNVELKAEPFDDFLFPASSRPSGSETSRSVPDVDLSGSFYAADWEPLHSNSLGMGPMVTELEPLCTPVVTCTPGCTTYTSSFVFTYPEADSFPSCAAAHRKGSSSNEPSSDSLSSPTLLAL

Molecular target: NF-κB p65 (mouse (endogenous in BV-2)) (UniProt Q04207)
Experiment: co-IP; BV-2 microglia treated with NA (3 µM) and Pg LPS (30 µg/mL); cell lysates (1 mg protein) immunoprecipitated with rabbit anti-NF-κB p65 antibodies (Pierce co-immunoprecipitation kit), normal IgG as control; Western blot with anti-c-Fos and anti-p65

## AP-1 c-Fos (from UniProt P01101 1-380)
  binding: binds
